Experimental data taken from patent US20110319337A1.
No constants are given. Whether binding was seen depends on the method and setting. Some binding calls cover weakened binding; strength is not graded here. Where a sequence is shown, tags or fusion partners need not be part of it.

Legend:
[1] = target: T1, recombinant Fzd8-Fc (Rattus norvegicus (Rat)) (UniProt Q498S8); test: conclusion of Example 1 (immunoprecipitation and TOPflash reporter)
T1 sequence: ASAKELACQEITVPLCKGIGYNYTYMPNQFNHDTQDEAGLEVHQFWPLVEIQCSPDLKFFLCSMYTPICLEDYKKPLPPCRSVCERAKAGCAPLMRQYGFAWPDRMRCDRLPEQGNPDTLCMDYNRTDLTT

[2] = target: T1, recombinant Fzd8-Fc (Rattus norvegicus (Rat)); test: immunoprecipitation of recombinant proteins, Western blot

B1: recombinant Wnt-2-GST (ligand, not shown: a dimerising Fc or GST)
chain: SWWYMRATGGSSRVMCDNVPGLVSSQRQLCHRHPDVMRAISQGVAEWTAECQHQFRQHRWNCNTLDRDHSLFGRVLLRSSRESAFVYAISSAGVVFAITRACSQGEVKSCSCDPKKMGSAKDSKGIFDWGGCSDNIDYGIKFARAFVDAKERKGKDARALMNLHNNRAGRKAVKRFLKQECKCHGVSGSCTLRTCWLAMADFRKTGDYLWRKYNGAIQVVMNQDGTGFTVANERFKKPTKNDLVYFENSPDYCIRDREAGSLGTAGRVCNLTSRGMDSCEVMCCGRGYDTSHVTRMTKCGCKFHWCCAVRCQDCLEALDVHTCKAPKNADWTTAT
binding [1]: binds
binding [2]: binds
